Measured values as given in paper PMC10673952.
No constants are given. Whether binding was seen depends on the method and setting. Some results given as binding are weak or reduced against the parent protein; the word gives no strength.

Sequences of proteins named here, by UniProt entry; tags and fusion partners are left off. Residues count along the entry.
UniProt P31697, residues 37-241: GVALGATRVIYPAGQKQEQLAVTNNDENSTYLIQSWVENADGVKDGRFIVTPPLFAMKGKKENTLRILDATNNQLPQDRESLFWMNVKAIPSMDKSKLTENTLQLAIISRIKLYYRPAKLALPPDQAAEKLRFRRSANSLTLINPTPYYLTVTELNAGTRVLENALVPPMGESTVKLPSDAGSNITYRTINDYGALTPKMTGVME
UniProt P08191, residues 22-300: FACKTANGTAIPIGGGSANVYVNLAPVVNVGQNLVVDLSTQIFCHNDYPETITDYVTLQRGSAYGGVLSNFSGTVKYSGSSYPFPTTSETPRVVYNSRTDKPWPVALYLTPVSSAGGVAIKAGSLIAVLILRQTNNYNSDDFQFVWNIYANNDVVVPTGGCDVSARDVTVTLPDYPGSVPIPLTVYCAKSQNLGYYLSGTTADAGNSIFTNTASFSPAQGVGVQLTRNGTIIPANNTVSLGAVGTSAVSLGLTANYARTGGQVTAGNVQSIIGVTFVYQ

How the values were obtained:
FimD (E. coli) = target: T1, FimD (E. coli) (UniProt P30130); assay: co-purification (HisTrap, Strep-Tactin, SEC); FimD, FimC and FimH co-expressed in E. coli Tuner; outer membranes solubilised in 1.5% DDM; HisTrap HP, Strep-Tactin sepharose, Superdex 200 in 0.05% DDM
T1 sequence: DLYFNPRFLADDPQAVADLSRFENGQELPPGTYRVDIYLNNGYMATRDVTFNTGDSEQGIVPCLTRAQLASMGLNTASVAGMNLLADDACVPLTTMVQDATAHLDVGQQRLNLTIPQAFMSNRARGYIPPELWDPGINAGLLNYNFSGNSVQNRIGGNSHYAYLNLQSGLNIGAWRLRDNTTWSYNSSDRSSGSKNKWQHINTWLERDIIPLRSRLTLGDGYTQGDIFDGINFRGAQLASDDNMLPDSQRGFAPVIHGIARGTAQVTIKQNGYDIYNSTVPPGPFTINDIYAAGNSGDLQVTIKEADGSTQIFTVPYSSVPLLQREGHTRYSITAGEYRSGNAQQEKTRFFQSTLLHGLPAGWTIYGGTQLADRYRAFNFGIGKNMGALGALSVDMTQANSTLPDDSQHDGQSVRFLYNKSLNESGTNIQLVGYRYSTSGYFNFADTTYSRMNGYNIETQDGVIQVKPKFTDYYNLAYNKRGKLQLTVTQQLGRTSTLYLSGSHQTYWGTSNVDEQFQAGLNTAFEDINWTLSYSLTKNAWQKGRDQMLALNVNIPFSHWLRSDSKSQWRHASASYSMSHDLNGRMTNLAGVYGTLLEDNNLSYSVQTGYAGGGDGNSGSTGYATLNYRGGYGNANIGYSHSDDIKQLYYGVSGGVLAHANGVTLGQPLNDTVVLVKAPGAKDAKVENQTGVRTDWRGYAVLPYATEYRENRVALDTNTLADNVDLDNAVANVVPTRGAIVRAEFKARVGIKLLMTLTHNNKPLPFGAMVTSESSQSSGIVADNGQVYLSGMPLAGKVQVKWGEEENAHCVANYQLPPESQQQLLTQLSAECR

FimG (E. coli) = target: T2, FimG (E. coli) (UniProt P08190); assay: co-purification after periplasmic co-expression (ion exchange, hydrophobic interaction chromatography, SEC); FimC co-expressed with FimF or FimG in E. coli HM125; periplasmic extract; Q-sepharose, Phenyl-sepharose, cation exchange, Superdex 75; identity by ESI-MS
T2 sequence: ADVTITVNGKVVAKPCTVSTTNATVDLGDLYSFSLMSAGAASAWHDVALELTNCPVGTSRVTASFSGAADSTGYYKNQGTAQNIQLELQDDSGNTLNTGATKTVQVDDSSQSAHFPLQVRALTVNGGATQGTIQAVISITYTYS

| binding (FimD (E. coli)) | binding (FimG (E. coli)) | Substance |
| --- | --- | --- |
| binds |  | FimC of the FimDCH complex (from UniProt P31697 37-241) |
|  | binds | FimC (from UniProt P31697 37-241) |
| binds |  | FimH (from UniProt P08191 22-300) |
